Laboratory results: PubChem BioAssay AID1259254 (NCATS, 2017)
Screen: 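Finding genes that stop cells copying their DNA twice in one cycle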 (primary screen). System: human HCT116 colorectal cancer cells. Reagents: single siRNA against human genes. Duration: 3 days. Read-out: 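Nuclei stained with Hoechst and imaged; cell-cycle phase assigned by DNA content; G2 share scaled per plate, non-targeting siRNA 0%, GMNN siRNA 100%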. Scale: G2 robust z-score and G2 cells, % of GMNN control: higher = more G2 cells, more excess DNA replication; raw share of cells in G2: higher = larger share of cells with G2 DNA content. Call rule: 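Active siRNAs have a G2 robust z of 5 or more median absolute deviations over the median, which in these data means about 38% or higher of GMNN control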.
Here is one part, drawn at random, of about 59,000 reagents tested. About 1,550 of all reagents (2.6%) count as active. 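G2 share is only a proxy for re-replication; each gene was hit by three separate siRNAs, and active genes were retested.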 Raw values are not corrected between plates. The numbers tell different reagents against one gene apart. No sequences are given here. Not given: the amount of reagent.

no.	target	siRNA no.	G2 robust z-score	G2 cells, % of GMNN control	raw share of cells in G2 (%)	call
1	LENG8 (leukocyte receptor cluster member 8)	1	2.9	23.4	16.5	inactive
2	LENG8 (leukocyte receptor cluster member 8)	2	1.26	11.8	10	inactive
3	LENG8 (leukocyte receptor cluster member 8)	3	0.371	5.58	6.59	inactive
4	PLD2 (phospholipase D2)	1	-0.528	-0.747	4.39	inactive
5	PLD2 (phospholipase D2)	2	-0.101	2.25	4.89	inactive
6	PLD2 (phospholipase D2)	3	-0.313	0.765	5.24	inactive
7	EID2 (EP300 interacting inhibitor of differentiation 2)	1	2.89	23.3	17.1	inactive
8	EID2 (EP300 interacting inhibitor of differentiation 2)	2	-0.354	0.479	4.88	inactive
9	EID2 (EP300 interacting inhibitor of differentiation 2)	3	0.0921	3.62	6.22	inactive
10	OVGP1 (oviductal glycoprotein 1)	1	0.736	8.14	5.98	inactive
11	OVGP1 (oviductal glycoprotein 1)	2	5.07	38.6	19.8	active
12	OVGP1 (oviductal glycoprotein 1)	3	1.09	10.6	9.06	inactive
13	RCBTB2 (RCC1 and BTB domain containing protein 2)	1	0.96	9.72	7.44	inactive
14	RCBTB2 (RCC1 and BTB domain containing protein 2)	2	-0.285	0.964	5.31	inactive
15	RCBTB2 (RCC1 and BTB domain containing protein 2)	3	1.02	10.1	8.69	inactive
16	PP2D1 (protein phosphatase 2C like domain containing 1)	1	-1.14	-5.08	2.12	inactive
17	PP2D1 (protein phosphatase 2C like domain containing 1)	2	1.8	15.7	7.75	inactive
18	PP2D1 (protein phosphatase 2C like domain containing 1)	3	0.077	3.51	4.29	inactive
19	NPAT (nuclear protein, coactivator of histone transcription)	1	6.46	48.4	25.6	active
20	NPAT (nuclear protein, coactivator of histone transcription)	2	-0.301	0.851	4.56	inactive
21	NPAT (nuclear protein, coactivator of histone transcription)	3	-1.15	-5.13	1.5	inactive
22	MYO1B (myosin IB)	1	-0.461	-0.279	5.36	inactive
23	MYO1B (myosin IB)	2	0.876	9.13	6.21	inactive
24	MYO1B (myosin IB)	3	0.257	4.78	7.21	inactive
25	MREG (melanoregulin)	1	-0.693	-1.91	2.53	inactive
26	MREG (melanoregulin)	2	-0.706	-2	3.75	inactive
27	MREG (melanoregulin)	3	-0.833	-2.9	2.94	inactive
28	ITGB7 (integrin subunit beta 7)	1	-0.904	-3.39	2.96	inactive
29	ITGB7 (integrin subunit beta 7)	2	-1.41	-6.98	3.03	inactive
30	ITGB7 (integrin subunit beta 7)	3	3.27	26	14.5	inactive
31	BRMS1 (BRMS1 transcriptional repressor and anoikis regulator)	1	0.162	4.11	4.73	inactive
32	BRMS1 (BRMS1 transcriptional repressor and anoikis regulator)	2	-1.03	-4.28	2.8	inactive
33	BRMS1 (BRMS1 transcriptional repressor and anoikis regulator)	3	0.388	5.69	6.41	inactive
34	CD36 (CD36 molecule (CD36 blood group))	1	0.0564	3.36	5.25	inactive
35	CD36 (CD36 molecule (CD36 blood group))	2	-0.0968	2.29	5.83	inactive
36	CD36 (CD36 molecule (CD36 blood group))	3	-0.667	-1.72	4.35	inactive
37	OR8D4 (olfactory receptor family 8 subfamily D member 4)	1	3.47	27.3	13.4	inactive
38	OR8D4 (olfactory receptor family 8 subfamily D member 4)	2	-0.35	0.504	3.48	inactive
39	OR8D4 (olfactory receptor family 8 subfamily D member 4)	3	0.913	9.39	7.97	inactive
40	SPAAR (small regulatory polypeptide of amino acid response)	1	-0.586	-1.15	3.19	inactive
41	SPAAR (small regulatory polypeptide of amino acid response)	2	-0.718	-2.09	2.26	inactive
42	SPAAR (small regulatory polypeptide of amino acid response)	3	2.14	18.1	8.47	inactive
43	TMEM167A (transmembrane protein 167A)	1	-0.297	0.878	3.37	inactive
44	TMEM167A (transmembrane protein 167A)	2	6.01	45.3	19	active
45	TMEM167A (transmembrane protein 167A)	3	-0.456	-0.244	2.84	inactive
46	ASCL5 (achaete-scute family bHLH transcription factor 5)	1	-0.696	-1.93	2.78	inactive
47	ASCL5 (achaete-scute family bHLH transcription factor 5)	2	0.762	8.33	5.69	inactive
48	ASCL5 (achaete-scute family bHLH transcription factor 5)	3	-1.22	-5.6	1.67	inactive
49	ASCL5 (achaete-scute family bHLH transcription factor 5)	4	2.08	17.6	9.76	inactive
50	ASCL5 (achaete-scute family bHLH transcription factor 5)	5	-0.699	-1.95	2.91	inactive
51	ASCL5 (achaete-scute family bHLH transcription factor 5)	6	2.69	21.9	12.5	inactive

Copied from above (7 entries):
no.	target	siRNA no.	G2 robust z-score	G2 cells, % of GMNN control	raw share of cells in G2 (%)	call
38	OR8D4 (olfactory receptor family 8 subfamily D member 4)	2	-0.35	0.504	3.48	inactive
39	OR8D4 (olfactory receptor family 8 subfamily D member 4)	3	0.913	9.39	7.97	inactive
40	SPAAR (small regulatory polypeptide of amino acid response)	1	-0.586	-1.15	3.19	inactive
41	SPAAR (small regulatory polypeptide of amino acid response)	2	-0.718	-2.09	2.26	inactive
42	SPAAR (small regulatory polypeptide of amino acid response)	3	2.14	18.1	8.47	inactive
43	TMEM167A (transmembrane protein 167A)	1	-0.297	0.878	3.37	inactive
44	TMEM167A (transmembrane protein 167A)	2	6.01	45.3	19	active
